Laboratory results as given in the supplement of paper PMC12823440, “Inhibitors supercharge kinase turnover through native proteolytic circuits” (Nature, 2025).
This is one part of the list. The calls rarely recur for the same compound in another form.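 In K562 cells expressing nanoluciferase-fused kinases, luminescence was recorded at 4 h intervals between 2 and 18 h, normalized as percent of control with DMSO at 100% and a positive control at 0%. A significant (2 sigma) signal drop marks a time point as decreased. The authors' rule for a hit is not shown and takes in more than the number of time points.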

Amino acid sequences for entries named in this document (tags omitted). A change or cut given only in a name is not applied to a line headed by its entry.
UniProt Q92630: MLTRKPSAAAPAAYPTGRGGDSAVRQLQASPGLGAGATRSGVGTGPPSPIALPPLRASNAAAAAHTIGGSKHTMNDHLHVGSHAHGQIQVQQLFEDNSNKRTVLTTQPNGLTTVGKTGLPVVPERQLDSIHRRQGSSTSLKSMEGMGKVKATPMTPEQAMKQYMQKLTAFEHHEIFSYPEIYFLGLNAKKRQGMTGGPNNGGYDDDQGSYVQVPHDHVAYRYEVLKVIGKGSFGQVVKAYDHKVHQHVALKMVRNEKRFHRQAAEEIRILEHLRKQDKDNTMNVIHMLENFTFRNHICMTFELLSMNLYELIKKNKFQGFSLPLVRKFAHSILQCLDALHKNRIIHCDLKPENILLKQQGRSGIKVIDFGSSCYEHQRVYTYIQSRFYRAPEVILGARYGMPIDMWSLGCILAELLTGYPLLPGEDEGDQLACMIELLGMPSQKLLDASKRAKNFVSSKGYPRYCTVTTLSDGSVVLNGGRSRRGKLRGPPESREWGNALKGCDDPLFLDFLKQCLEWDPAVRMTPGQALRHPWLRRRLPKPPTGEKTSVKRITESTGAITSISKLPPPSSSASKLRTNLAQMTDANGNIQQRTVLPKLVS

Each compound was assayed against DYRK2 (UniProt Q92630) (assay: kinase-Nluc reporter destabilization hit call (1 = scored as downregulated) (binary); higher = compound decreases kinase abundance). Conditions: K562; 2-18 h.

kinase-Nluc reporter destabilization hit call, inactive:
COc1ccc(NC(=O)N2CCN(c3nc(N)nc4c3cnn4C)[C@@H](C)C2)c(C)c1 (10 µM) 0
O=C(Nc1ccc(-c2ccnc(Nc3ccc(N4CCOCC4)cc3)n2)cc1)C1CCCN1 (stereo not given) (10 µM) 0
COc1nccc(-c2c(-c3ccc(F)cc3)ncn2C2CCC(O)CC2)n1 (stereo not given) (10 µM) 0
NC(=O)c1ccc2nc(-c3ccc(Oc4ccc(Cl)cc4)cc3)[nH]c2c1 (10 µM) 0
Cc1cc(C)c(/C=C2\C(=O)Nc3ccccc32)[nH]1 [Semaxinib] (10 µM) 0
COc1ccc(COc2ccc(Cc3cnc(N)nc3N)cc2OC)cc1 (10 µM) 0
CN1CCN(c2ccc(Nc3cc(-c4cccc(-n5ccc6cc(C7CC7)cc(F)c6c5=O)c4CO)cn(C)c3=O)nc2)CC1 (2.5 µM) 0
C=CC(=O)N1CCC[C@@H](n2nc(-c3ccc(Oc4ccccc4)cc3)c(C(N)=O)c2N)C1 [Btk inhibitor 2] (10 µM) 0
Cc1c(NC(=O)c2cc3c(s2)CCCC3)cccc1-c1cn(C)c(=O)c(Nc2ccc([C@@H]3C(=O)N(C)CCN3C)cc2)n1 (10 µM) 0
CCOc1ccn(-c2ccc(F)cc2)c(=O)c1C(=O)Nc1ccc(Oc2ccnc(N)c2Cl)c(F)c1 (10 µM) 0
CCn1c(=O)c2cc(C(N)=O)c(N)nc2n(C2CC2)c1=O (10 µM) 0
COc1cc(C(=O)NC2CCN(C)CC2)ccc1Nc1ncc2c(n1)N(C1CCCC1)CC(F)(F)C(=O)N2C (10 µM) 0
CCN1CCN(c2ccc(Nc3cc(N(C)C(=O)Nc4c(Cl)c(OC)cc(OC)c4Cl)ncn3)cc2)CC1 [Infigratinib] (10 µM) 0
CN1CCN(S(=O)(=O)c2ccc(-c3cnc(N)c(C(=O)Nc4cccnc4)n3)cc2)CC1 (10 µM) 0
Cc1cccc([C@@H](CO)NC(=O)[C@@H](C)N2Cc3ccc(-c4nc(NC5CCOCC5)ncc4Cl)cc3C2=O)c1 [ERK1/2 inhibitor 1] (10 µM) 0
COc1cc(CCc2cc(-c3nc4ccc(N5CCN(C)CC5)cc4[nH]3)n[nH]2)cc(OC)c1 (10 µM) 0
Cc1cc(CS(=O)(=O)c2ccccc2)cc(OCc2ccc(CN3CCC[C@@H]3CO)cc2)c1 [PF-543 (Citrate)] (10 µM) 0
Cc1[nH]c(/C=C2\C(=O)Nc3ccc(S(=O)(=O)Cc4c(Cl)cccc4Cl)cc32)c(C)c1C(=O)N1CCC[C@@H]1CN1CCCC1 (2.5 µM) 0
Cc1cc(F)c(C(=O)Nc2cccc(-c3nncn3C(C)C)n2)cc1-n1cnc(C2CC2)c1 [Selonsertib] (10 µM) 0
COCCOc1cc2nccc(Nc3n[nH]c(C)c3C)c2cc1S(=O)(=O)C(C)(C)C [RIP2 kinase inhibitor 2] (2.5 µM) 0

Some of these compounds in order of molecular weight, smallest number first.
kinase-Nluc reporter destabilization hit call, inactive:
COCCOc1cc2nccc(Nc3n[nH]c(C)c3C)c2cc1S(=O)(=O)C(C)(C)C [RIP2 kinase inhibitor 2] (2.5 µM) 0
O=C(Nc1ccc(-c2ccnc(Nc3ccc(N4CCOCC4)cc3)n2)cc1)C1CCCN1 (stereo not given) (10 µM) 0
COc1cc(CCc2cc(-c3nc4ccc(N5CCN(C)CC5)cc4[nH]3)n[nH]2)cc(OC)c1 (10 µM) 0
